The whole screen tested about 330,000 compounds, of which about 7,700 (2.3%) were called active. Inconclusive means that the source gave no clear call. Such entries were picked first, then a sample of the others. Calls come from the whole dose curve; as a rule, active = well fitted inhibition curve with a large enough effect; inconclusive = small, poorly fitted or top-dose-only effect, or effect the other way; inactive = flat fitted curve, though single readings scatter. Where the call is inconclusive, the potency comes from a doubtful curve fit.
Experiment: qHTS screen for small molecules that inhibit ELG1-dependent DNA repair in human embryonic kidney (HEK293T) cells expressing luciferase-tagged ELG1; note: nearly all actives have a fitted effect of over 55% in size
Settings: HEK293T ELG1-luciferase reporter, luminescence, 16 h, DNA damage induced by 5-fluorouridine; series mostly up to 46.1 µM
Summary of the method: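 Reporter activity after DNA damage by 5-fluorouridine is monitored. Compound-treated cells incubate 16 hr at 37 °C, then ONE-Glo is added for 30 min before luminescence reading.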
Potency is the fitted concentration of half-maximal effect.

Row | SMILES | Potency
1 | CC(=O)OCc1cc(-c2nc3ccccc3[nH]c2=O)nn1-c1ccc(Cl)cc1 | inactive
2 | Cc1nnc(C)n1/N=C/c1cc(Br)cc(Br)c1O | inactive
3 | COC(=O)Nc1nnc(SCc2ccc(C)cc2)s1 | inconclusive: 25.9 µM [activator, single point]
4 | CCCC1C(=O)N(Cc2ccccc2)C(=O)CC1C (centres undefined) | inconclusive: 20.6 µM [activator, partial curve, poor fit]
5 | O=S(=O)(/N=C(/Nc1ccc(Cl)c(S(=O)(=O)N2CCOCC2)c1)c1ccc(F)cc1)c1ccccc1 | inconclusive: 7.3 µM [inhibitor, partial curve]
6 | COc1cc(NC(=O)c2ccc(C)cc2)c(OC)cc1NC(=O)CN1CCOCC1 | inconclusive: 29.1 µM [inhibitor, single point]
7 | Cc1ccc(NC(=O)CSc2nc(-c3ccco3)cc(C(F)(F)F)n2)cc1C | inconclusive: 6.51 µM [inhibitor, single point]
8 | N#C[C@H]1[C@H](c2ccccc2)[C@](C#N)(C(=O)c2ccccc2)[C@@H]2C=Cc3ccccc3N21 | active: 12.6 µM
9 | Cc1nn(C)cc1/C=C/C(=O)c1ccc(O)cc1 | inconclusive: 11.6 µM [activator, partial curve]
10 | CCCOC1CCCN(C(=O)c2cc(COc3ccc(-n4cncn4)cc3)on2)C1 (centres undefined) | inconclusive: 1.3 µM [inhibitor, single point]
11 | Cc1ccc(-n2nc3c(c2NC(=O)C(C)C)CS(=O)(=O)C3)c(C)c1 | inactive
12 | CCc1sc(C(=O)Nc2ccc(N3CCOCC3)cc2)cc1C | inconclusive: 25.9 µM [inhibitor, single point]
13 | CC#CCN(Cc1ccco1)C(=O)C1CCC(=O)N(Cc2ccccc2F)C1 (centres undefined) | inconclusive: 20.6 µM [activator, single point]
14 | O=c1c2cnn(-c3ccccc3)c2nc(-c2cccs2)n1-c1cccc(Cl)c1 | active: 14.6 µM
15 | CCOc1ccc(-c2noc(-c3cccnc3)n2)cc1OC | inconclusive: 23.1 µM [activator, partial curve, poor fit]
16 | CC(C)(C)C(=O)NC1(C(F)(F)F)NC(=O)N(Cc2ccccc2)C1=O (centres undefined) | inconclusive: 0.164 µM [inhibitor, full curve, poor fit]
17 | COc1ccccc1NC(=O)c1cc(S(=O)(=O)NC2CCCC2)ccc1F | inconclusive: 14.6 µM [inhibitor, partial curve, poor fit]
18 | O=C(CSc1nnc2c(n1)[nH]c1ccccc12)Nc1cccc(S(=O)(=O)N2CCOCC2)c1 | inactive
19 | C/C(CCc1oc2ccccc2c1-c1ccc(C)o1)=N/O | inactive
20 | COCCCNC(=O)c1ccc2c(c1)ncn2-c1ccc(C)cc1C | inactive
21 | Cc1cc2ccccc2n1CCNC(=O)c1ccc(S(=O)(=O)N2CCOCC2)cc1 | inactive
22 | Cc1ccc(C(C)C)c(OCc2nnc3n2CCCCC3)c1 | inactive

Ordered by molecular weight (low to high): some entries from above.
Row | SMILES | Potency
16 | CC(C)(C)C(=O)NC1(C(F)(F)F)NC(=O)N(Cc2ccccc2)C1=O (centres undefined) | inconclusive: 0.164 µM [inhibitor, full curve, poor fit]
13 | CC#CCN(Cc1ccco1)C(=O)C1CCC(=O)N(Cc2ccccc2F)C1 (centres undefined) | inconclusive: 20.6 µM [activator, single point]
14 | O=c1c2cnn(-c3ccccc3)c2nc(-c2cccs2)n1-c1cccc(Cl)c1 | active: 14.6 µM

Further compounds:

Row | SMILES | Potency
23 | COc1cc(-c2nc3cccc(C)n3c2NCC2CCCO2)ccc1O (centres undefined) | inactive
24 | COC(=O)CSc1nc(C)cc(N2CCOCC2)n1 | inconclusive: 11.6 µM [activator, partial curve]
25 | CN1c2ccsc2/C(=N/NC(=O)c2c(F)cccc2F)CS1(=O)=O | inactive
26 | O=C(COC(=O)Cc1ccc(Cl)cc1)NCc1ccc(F)cc1 | inconclusive: 20.6 µM [activator, partial curve, poor fit]
27 | O=C(Nc1cccnc1)c1ccc(Cl)c([N+](=O)[O-])c1 | inconclusive: 29.1 µM [activator, partial curve, poor fit]
28 | O=C(COc1ccccc1-c1ccccc1)NNC(=O)NC1CCCCC1 | inconclusive: 29.1 µM [inhibitor, partial curve, poor fit]
29 | c1ccc2c(Nc3ccc4c(c3)OCCO4)c3c(nc2c1)CCC3 | inconclusive: 18.3 µM [inhibitor, single point]
30 | COc1cc(/C=N/N2C(=O)C3C4c5ccccc5C(c5ccccc54)C3C2=O)ccc1O (centres undefined) | inconclusive: 32.6 µM [inhibitor, partial curve, poor fit]
31 | Cc1ccccc1Nc1nc(N)nc(COC(=O)C2CCCCC2)n1 | inconclusive: 20.6 µM [activator, single point]
32 | CSCCC(NC(=O)c1ccco1)C(=O)NC1CCC(C)CC1 (centres undefined) | inconclusive: 5.17 µM [activator, partial curve]
33 | O=C1C2CSCN2C(=O)CN1CCCN1CCN(C(c2ccccc2)c2ccccc2)CC1 (centres undefined) | inactive
34 | CCCCNC(=O)c1cc(-c2ccc(OC)cc2)on1 | inconclusive: 9.2 µM [activator, partial curve]
35 | Clc1ccc(Cn2ncc3c(NCCN4CCOCC4)ncnc32)cc1 | inactive
36 | c1ccc2sc(N3CCCN(Cc4nc(-c5cnccn5)no4)CC3)nc2c1 | inconclusive: 29.1 µM [inhibitor, single point]
37 | O=C(CNC(=O)c1nc[nH]c1C(=O)N1CCN(c2ccccc2)CC1)OCc1ccccc1 | inconclusive: 29.1 µM [activator, single point]
38 | Cc1ccc(-n2nc3c(=O)n(C(C)C(=O)NCc4ccc(Cl)cc4)nc(C)c3c2C)cc1 (centres undefined) | inconclusive: 20.6 µM [inhibitor, single point]
39 | O=C(CCC1CCCN(C(=O)c2cccs2)C1)N1CCN(c2ccccn2)CC1 (centres undefined) | inconclusive: 18.3 µM [inhibitor, single point]
40 | Cc1ccccc1-n1ncc2c(SCC(=O)NCc3cccs3)ncnc21 | inactive
41 | CCCS(=O)(=O)N1CCCC(c2nc(-c3cccc(OC)c3)no2)C1 (centres undefined) | inconclusive: 14.6 µM [inhibitor, partial curve]
42 | C=CCC[C@@H](Cc1ccc(F)cc1)C(=O)OC[C@H](Cc1c[nH]c2ccccc12)NC(=O)[C@@H](CC=C)CC(=O)N[C@H](CO)Cc1ccccc1 | inconclusive: 1.16 µM [activator, single point]
43 | Clc1ccc(Cl)c(-c2nn3c(COc4ccccc4)nnc3s2)c1 | inactive
44 | CCOc1ccccc1NC(=O)N1CCC(NC(=O)c2ccccc2C)CC1 | inactive

From PubChem BioAssay AID504467 (National Center for Advancing Translational Sciences (NCATS), 2011)
